Measured values reported in US6667387B1, “HCV core peptides” (priority 1992, dated 2003).

Experiment: Detection of biotinylated peptides coated directly, with streptavidin:horseradish peroxidase conjugate
Settings: coating 10 nanograms per milliliter to 3 micrograms per milliliter

Substance	binding of directly coated biotinylated peptide to the wells of the polystyrene microtiter plate
Leu-Arg-Lys-Ser-Arg-Arg-Phe-Ala-Gln-Ala-Leu-Pro-Val-Trp-Ala-Arg-Pro-Asp-Tyr-Asn [Peptide XVI] (LRKSRRFAQALPVWARPDYN; printed: Leu-Arg-Lys-Ser-Arg-Arg-Phe-Ala-Gln-Ala-Leu-Pro-Val-Trp-Ala-Arg-Pro-Asp-Tyr-Asn)	bind only weakly
PQRKTKRNTNRRPQDVKFPG	very significant binding to the solid phase
SQHLPYIEQGMMLAEQFKQK	bind only weakly

Ends that are not written are not given here.
